Results are given in words; binding and its absence hold for the method and conditions named. Some binding calls cover weakened binding; strength is not graded here.
T1: ERP5 on the cell surface of tumor cells (U266, Hela, A375) (UniProt Q15084 20-440, limits assumed)
T1 construct: whole, on cells; Endogenous protein of tumor cell lines; also called disulfide isomerase-related protein P5; surface ERP5
T1 sequence (looked up): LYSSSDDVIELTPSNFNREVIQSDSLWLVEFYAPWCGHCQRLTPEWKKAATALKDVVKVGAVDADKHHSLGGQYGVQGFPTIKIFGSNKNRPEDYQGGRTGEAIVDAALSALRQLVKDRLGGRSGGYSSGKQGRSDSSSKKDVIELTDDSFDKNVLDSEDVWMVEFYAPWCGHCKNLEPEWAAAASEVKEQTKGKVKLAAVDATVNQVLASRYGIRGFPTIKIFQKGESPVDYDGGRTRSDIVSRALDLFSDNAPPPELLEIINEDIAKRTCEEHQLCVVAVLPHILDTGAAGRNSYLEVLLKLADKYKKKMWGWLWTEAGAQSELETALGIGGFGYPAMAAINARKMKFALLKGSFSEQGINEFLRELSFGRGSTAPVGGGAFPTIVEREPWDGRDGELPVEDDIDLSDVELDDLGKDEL

T2: recombinant soluble MICA (rsMICA), unglycosylated, produced in bacteria; ectodomain-only MICA (human) (UniProt Q29983)
T2 sequence: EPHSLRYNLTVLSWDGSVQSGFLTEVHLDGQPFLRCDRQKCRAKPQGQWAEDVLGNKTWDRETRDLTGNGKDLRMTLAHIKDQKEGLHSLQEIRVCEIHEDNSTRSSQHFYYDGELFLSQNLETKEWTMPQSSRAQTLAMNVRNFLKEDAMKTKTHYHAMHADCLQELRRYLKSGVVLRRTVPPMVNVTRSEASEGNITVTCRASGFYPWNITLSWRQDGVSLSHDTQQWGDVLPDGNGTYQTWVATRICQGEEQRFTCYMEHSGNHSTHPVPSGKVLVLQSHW

B1: MICA-conjugated sepharose beads (ligand)
chain: EPHSLRYNLTVLSWDGSVQSGFLTEVHLDGQPFLRCDRQKCRAKPQGQWAEDVLGNKTWDRETRDLTGNGKDLRMTLAHIKDQKEGLHSLQEIRVCEIHEDNSTRSSQHFYYDGELFLSQNLETKEWTMPQSSRAQTLAMNVRNFLKEDAMKTKTHYHAMHADCLQELRRYLKSGVVLRRTVPPMVNVTRSEASEGNITVTCRASGFYPWNITLSWRQDGVSLSHDTQQWGDVLPDGNGTYQTWVATRICQGEEQRFTCYMEHSGNHSTHPVPSGK
modifications: coupled to sepharose beads
B2: ERP5 fragment 1-118 C39S active site mutant (enzyme, UniProt Q15084 20-137, looked up)
chain: LYSSSDDVIELTPSNFNREVIQSDSLWLVEFYAPWCGHSQRLTPEWKKAATALKDVVKVGAVDADKHHSLGGQYGVQGFPTIKIFGSNKNRPEDYQGGRTGEAIVDAALSALRQLVKD
notes: Position 39 counts on the mature protein; not shown: N-terminal hexahistidine tract

Tests used:
[1] = biological target: T1, ERP5 on the cell surface of tumor cells …; assay: MICA bead purification from surface-biotinylated cells, immunoblot
[2] = biological target: T2, recombinant soluble MICA (rsMICA), unglycosylated, produced in bacteria; ectodomain-only MICA (human); assay: incubation of purified proteins, non-reducing SDS-PAGE
[3] = biological target: T2, recombinant soluble MICA (rsMICA), unglycosylated, produced in bacteria; ectodomain-only MICA (human); assay: incubation of purified proteins, non-reducing SDS-PAGE; resolved by β-ME

Binder	binding [1]	binding [2]	binding [3]
B1	binds	–	–
B2	–	binds	binds

Reference: patent US20070248607A1, “NEGATIVE IMMUNOMODULATION OF IMMUNE RESPONSES BY NKG2D-POSITIVE CD4+ CELLS” (priority 2005, published 2007)
